# Results as given in the supplement of paper PMC3334620.
# The full ranking holds about 33,000 sequences; the median of “E-score (-0.5 to 0.5)” is about -0.015, and the highest 2% start at about 0.3. The list shows a part of the results.
# Target: T1, Abf1 (UniProt P14164)
# T1 sequence: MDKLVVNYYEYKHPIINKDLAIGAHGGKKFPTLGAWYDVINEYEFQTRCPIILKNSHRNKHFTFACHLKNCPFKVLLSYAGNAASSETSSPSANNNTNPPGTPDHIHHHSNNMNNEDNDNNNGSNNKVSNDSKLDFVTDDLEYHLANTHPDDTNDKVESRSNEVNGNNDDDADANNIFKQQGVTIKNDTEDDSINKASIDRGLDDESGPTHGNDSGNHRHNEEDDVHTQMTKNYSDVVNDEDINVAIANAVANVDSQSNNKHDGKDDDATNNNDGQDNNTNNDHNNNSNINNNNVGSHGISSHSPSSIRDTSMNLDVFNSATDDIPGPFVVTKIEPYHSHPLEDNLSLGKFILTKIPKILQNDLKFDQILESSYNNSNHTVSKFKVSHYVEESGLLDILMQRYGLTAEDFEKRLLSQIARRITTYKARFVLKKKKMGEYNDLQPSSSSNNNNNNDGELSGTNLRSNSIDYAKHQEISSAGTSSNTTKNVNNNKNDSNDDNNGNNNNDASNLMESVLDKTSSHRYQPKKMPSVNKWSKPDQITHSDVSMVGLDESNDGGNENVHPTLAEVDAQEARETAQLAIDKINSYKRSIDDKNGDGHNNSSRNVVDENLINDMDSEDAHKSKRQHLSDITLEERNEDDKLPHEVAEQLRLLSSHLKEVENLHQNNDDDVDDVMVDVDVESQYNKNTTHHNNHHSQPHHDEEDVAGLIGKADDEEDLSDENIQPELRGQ
# Experiment: PBM E-score (8-mer binding enrichment) (E-score (-0.5 to 0.5)); higher = stronger / more preferred TF binding
# Details: protein concentration: 200 nM; construct: GST-full length
# Method: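 Universal 'all 10-mer' protein binding microarrays (Agilent AMADID 015681) probed with GST-tagged S. cerevisiae TFs (full-length or DBD) made by in vitro transcription/translation (PURExpress), about 100-200 nM. Bound TF was detected with fluorescent anti-GST. Each ungapped 8-mer (which stands for itself and its reverse complement) is scored by the PBM enrichment score (E-score), a modified Wilcoxon-Mann-Whitney statistic from -0.5 to +0.5, computed with the Universal PBM Analysis Suite. Scale: above 0.35 generally sequence-specific binding.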
row,Sequence,PBM E-score
1,ACGGCCAC,0.209
2,CACAACTA,-0.00249
3,AATCTACG,0.141
4,GTGTGAGA,0.0847
5,AATCAATG,0.222
6,GGTGCTAA,-0.086
7,GCTCCTGA,-0.23
8,CACAAGCG,-0.332
9,AATGTTAG,-0.0298
10,ACTGGAAT,0.0649
11,CGCAGGGC,-0.0334
12,GAGAGAAC,0.0911
13,CGGAATAG,-0.00573
14,TATCTTCA,0.138
15,CGGTTGCC,0.019
16,CGCACCCC,-0.13
17,TAACAGAA,0.0748
18,TTAGCCAA,-0.00286
19,ACTGCGGC,-0.218
20,CCGGGTAG,-0.079
21,CGTTCGCA,0.183
22,CGTAACGA,0.0356
23,ATCTCTCA,0.0639
24,GCTGGGAA,-0.0941
25,TAAGTGTA,0.0245

# A different layout for part of the listing above.
row	Sequence	PBM E-score
3	AATCTACG	0.141
4	GTGTGAGA	0.0847

# Later entries.

row,Sequence,PBM E-score
1,CCTTTATC,-0.0556
2,CTCCCAGC,-0.0417
3,ATTATTCA,0.193
4,TAAGGATA,-0.0106
5,CGCTTAAA,-0.0257
6,CGACCCCG,-0.337
7,CATTTTGA,0.17
8,GCATACAC,-0.102
9,AAATATAG,0.239
10,GAGGCTCA,-0.109
11,AGACTACG,-0.135
12,CCTTCTTC,-0.206
13,AATCCTCC,-0.168
14,ACGGCTGA,0.06
15,AACTGTCG,0.211
16,AGCGACAC,0.169
17,AGCCGACA,-0.188
18,CTATCTCC,-0.0555
19,AATCTTCG,0.155
20,CGGTGATC,0.214
21,TGAACGCA,0.092
22,ATGGAAGA,0.0619
23,ATGTATAA,0.103
24,ATAAGCAT,-0.0317
25,CAGGTGGG,-0.193

row,Sequence,PBM E-score
1,CAAGATAC,0.047
2,GGAGATTA,-0.0538
3,GAAAACAA,-0.00045
4,TGGGCCAA,-0.148
5,AAGCGATG,0.158
6,ACGGACGG,0.077
7,CGATAGGA,0.0789
8,CACAGCTA,-0.157
9,CATTACGC,-0.0418
10,ATGTGGGC,-0.111
11,CGTCGCCC,-0.152
12,CCCCAGCC,-0.122
13,GCTCCAGA,-0.176
14,AATCCCAC,-0.135
15,ATACTAAT,0.12
16,GCCATGCC,-0.147
17,GCATTGGA,-0.207
18,GAAGGGTA,-0.16
19,CAGATATG,0.00568
20,ATTCTAGC,0.0874
21,TCAAAGAA,-0.0306
22,CATAATAC,0.129
23,GTGGGTTA,-0.111
24,AGCATTTC,0.0236
25,CACTTAAA,-0.0129

row,Sequence,PBM E-score
1,CTTCGGAA,-0.00441
2,ATACTTCG,0.138
3,GACCCCCC,-0.186
4,AGGCTCAC,-0.135
5,TCTTGGAA,-0.00047
6,AGGCCACC,-0.154
7,AGAATAAT,0.0573
8,TAAAAGCA,-0.0293
9,GGACGAAA,0.0999
10,GATCTTGA,0.0915
11,CCAACAAC,0.05
12,AAGCGCCG,-0.00412
13,ATGTTTGG,-0.139
14,CCTCTACA,-0.245
15,AAAGTTGA,0.0822
16,CTGTCACC,0.174
17,CATGTCAG,0.0449
18,CTTTAAAG,-0.149
19,CTAGAATC,-0.0573
20,GCTTGGCC,-0.0864
21,CATCACTC,0.385
22,TCAGCCCA,0.00832
23,GAAGCCTA,-0.00417
24,GATCAAAC,-0.0256
25,AGTGAGCC,-0.0656

row,Sequence,PBM E-score
1,AGTTGACG,0.16
2,CACTAACA,-0.0249
3,ATCGTCAT,0.349
4,ACACGAAC,0.268
5,CGTTTCAC,0.0723
6,CGGGGCAA,-0.0557
7,CCTTCAAC,-0.146
8,CCCGTACG,0.348
9,CCTGCCTC,-0.11
10,ACGACTGG,-0.0237
11,CAGGATCC,-0.143
12,AGACTATA,0.14
13,AATTTCCT,-0.00613
14,CGACGTCA,0.123
15,CAATTAAA,0.0121
16,AGTAAACC,-0.0876
17,TTAGAGAA,-0.155
18,CACGGACG,0.337
19,CGCTTGCC,-0.0145
20,ATGCCTCC,-0.243
21,CCCTCAGA,-0.0913
22,CGGACACA,-0.101
23,ACCGAAGT,-0.00667
24,GGGAGGAC,-0.108
25,AATAGTCC,-0.159

# Laid out differently: results already given.
row	Sequence	PBM E-score
21	CCCTCAGA	-0.0913
22	CGGACACA	-0.101
23	ACCGAAGT	-0.00667

# More results follow:

row,Sequence,PBM E-score
1,GAACCCCC,-0.405
2,CGAATTCC,-0.0103
3,AGTCCCAC,-0.232
4,GAGCATAC,0.109
5,ACAACCAA,0.178
6,AAAGCTTA,-0.0456
7,TCACTTCA,0.21
8,CGAAATAA,0.17
9,GCAACAAC,0.124
10,ATGCAATA,-0.0124
11,GCCTGGCA,-0.344
12,AATAAAAT,0.2
13,ATCTCCAC,0.0493
14,AGCACCGG,-0.224
15,GGTGTAGA,-0.0583
16,AGACATCT,0.11
17,AGCATCCT,-0.21
18,AAGCGTTC,-0.219
19,GATTCCCA,-0.0251
20,ATTAGTCC,-0.0426
21,AAGACACC,-0.179
22,AAACTAAC,0.0188
23,AGACAACA,-0.111
24,TCTCTCAA,0.0685
25,ACAAATAT,0.104

# 6 consecutive records from above, for reference:
row,Sequence,PBM E-score
8,CGAAATAA,0.17
9,GCAACAAC,0.124
10,ATGCAATA,-0.0124
11,GCCTGGCA,-0.344
12,AATAAAAT,0.2
13,ATCTCCAC,0.0493

# Further entries

row,Sequence,PBM E-score
1,GGAGCGTA,0.0134
2,ACTCGTTA,0.0993
3,AGGTTTGA,-0.188
4,AAGAGGAA,-0.0719
5,CTGGTAAG,-0.022
6,ACATATTA,0.233
7,TCAGCGCA,0.0776
8,ATGTGTGG,-0.0528
9,GATGCGCA,0.0666
10,GGCGGTAC,0.0588
11,AACCGATT,0.0401
12,CGAACCAC,-0.0685
13,AGTGCTCC,-0.0728
14,AGAATCAG,-0.0824
15,GAGTAATC,0.00056
16,GCTGGACC,-0.246
17,AAAATGTT,0.134
18,GTAAATCA,0.263
19,ATGTATCA,0.267
20,GACTGCTC,-0.108
21,CGGAACAG,-0.026
22,GAAGCCGC,0.0771
